## Percent effect of library compounds

Protein sequences, listed by entry. Tags and fused reporters are not part of them. Residues count along the entry.
UniProt Q4DA54, 1-478: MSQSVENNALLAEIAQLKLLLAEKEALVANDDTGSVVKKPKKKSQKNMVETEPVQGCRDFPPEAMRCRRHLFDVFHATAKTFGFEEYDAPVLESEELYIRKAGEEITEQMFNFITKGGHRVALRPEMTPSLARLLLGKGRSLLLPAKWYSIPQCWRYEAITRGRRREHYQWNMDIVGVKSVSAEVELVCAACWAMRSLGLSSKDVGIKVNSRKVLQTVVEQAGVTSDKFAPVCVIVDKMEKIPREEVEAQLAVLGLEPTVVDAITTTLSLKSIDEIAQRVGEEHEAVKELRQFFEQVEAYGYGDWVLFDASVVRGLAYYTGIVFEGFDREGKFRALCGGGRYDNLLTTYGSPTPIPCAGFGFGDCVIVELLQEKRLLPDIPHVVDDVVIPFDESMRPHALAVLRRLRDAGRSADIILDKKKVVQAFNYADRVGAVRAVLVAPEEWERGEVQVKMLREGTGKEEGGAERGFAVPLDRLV
UniProt P9WFT3, whole entry: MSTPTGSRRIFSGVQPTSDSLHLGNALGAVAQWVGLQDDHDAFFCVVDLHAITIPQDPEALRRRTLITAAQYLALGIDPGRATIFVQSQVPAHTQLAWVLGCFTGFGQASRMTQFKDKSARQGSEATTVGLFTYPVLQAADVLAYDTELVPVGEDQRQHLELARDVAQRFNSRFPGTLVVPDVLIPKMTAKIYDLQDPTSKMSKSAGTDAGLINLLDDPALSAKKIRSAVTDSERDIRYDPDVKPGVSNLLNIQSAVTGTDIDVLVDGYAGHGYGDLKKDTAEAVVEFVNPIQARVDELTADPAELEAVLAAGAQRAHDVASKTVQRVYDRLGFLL
UniProt I6X8D2, whole entry: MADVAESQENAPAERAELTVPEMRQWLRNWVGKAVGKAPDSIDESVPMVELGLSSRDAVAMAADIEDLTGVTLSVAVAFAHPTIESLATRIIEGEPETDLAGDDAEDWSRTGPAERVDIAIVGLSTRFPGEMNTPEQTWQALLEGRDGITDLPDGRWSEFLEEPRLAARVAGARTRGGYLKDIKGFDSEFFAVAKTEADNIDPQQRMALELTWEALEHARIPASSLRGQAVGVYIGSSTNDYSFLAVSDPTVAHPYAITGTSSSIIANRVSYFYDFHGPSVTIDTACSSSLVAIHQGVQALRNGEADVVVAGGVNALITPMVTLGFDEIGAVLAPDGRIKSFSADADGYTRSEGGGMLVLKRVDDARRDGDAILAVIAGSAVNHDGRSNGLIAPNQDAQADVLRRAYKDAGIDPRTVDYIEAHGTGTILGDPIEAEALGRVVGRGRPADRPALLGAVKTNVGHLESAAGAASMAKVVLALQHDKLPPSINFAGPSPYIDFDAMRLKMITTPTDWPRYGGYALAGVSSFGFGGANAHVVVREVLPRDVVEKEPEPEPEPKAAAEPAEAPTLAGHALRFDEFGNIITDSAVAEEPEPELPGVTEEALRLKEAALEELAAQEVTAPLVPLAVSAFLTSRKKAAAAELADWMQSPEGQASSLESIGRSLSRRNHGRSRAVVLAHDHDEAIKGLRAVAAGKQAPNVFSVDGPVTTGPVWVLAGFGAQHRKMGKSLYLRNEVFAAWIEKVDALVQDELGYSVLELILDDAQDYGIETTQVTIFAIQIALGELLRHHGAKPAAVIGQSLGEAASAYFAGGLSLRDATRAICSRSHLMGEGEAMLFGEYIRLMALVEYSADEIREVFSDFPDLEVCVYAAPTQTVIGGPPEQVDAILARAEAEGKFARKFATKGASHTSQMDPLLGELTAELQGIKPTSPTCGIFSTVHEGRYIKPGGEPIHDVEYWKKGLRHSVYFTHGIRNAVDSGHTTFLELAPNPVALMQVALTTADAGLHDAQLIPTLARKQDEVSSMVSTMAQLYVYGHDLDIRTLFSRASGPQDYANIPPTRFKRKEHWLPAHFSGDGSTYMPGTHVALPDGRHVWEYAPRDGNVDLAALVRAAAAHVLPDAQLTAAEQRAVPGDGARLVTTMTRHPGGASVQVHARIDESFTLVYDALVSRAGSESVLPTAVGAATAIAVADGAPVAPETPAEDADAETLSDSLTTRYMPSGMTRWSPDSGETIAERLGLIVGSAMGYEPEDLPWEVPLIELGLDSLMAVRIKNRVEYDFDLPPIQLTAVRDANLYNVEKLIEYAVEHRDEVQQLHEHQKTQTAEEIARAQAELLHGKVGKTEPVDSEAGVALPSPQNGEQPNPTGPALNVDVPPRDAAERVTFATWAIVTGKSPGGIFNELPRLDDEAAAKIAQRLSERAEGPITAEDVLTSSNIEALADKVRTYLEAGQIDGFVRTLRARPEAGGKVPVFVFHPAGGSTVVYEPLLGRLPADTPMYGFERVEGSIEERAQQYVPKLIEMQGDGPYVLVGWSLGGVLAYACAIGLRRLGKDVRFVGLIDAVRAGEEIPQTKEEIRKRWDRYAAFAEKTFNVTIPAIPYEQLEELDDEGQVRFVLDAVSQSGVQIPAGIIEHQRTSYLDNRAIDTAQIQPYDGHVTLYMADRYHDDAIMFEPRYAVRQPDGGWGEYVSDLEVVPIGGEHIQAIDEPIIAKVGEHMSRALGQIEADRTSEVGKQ
UniProt Q8IDJ8, 1-583: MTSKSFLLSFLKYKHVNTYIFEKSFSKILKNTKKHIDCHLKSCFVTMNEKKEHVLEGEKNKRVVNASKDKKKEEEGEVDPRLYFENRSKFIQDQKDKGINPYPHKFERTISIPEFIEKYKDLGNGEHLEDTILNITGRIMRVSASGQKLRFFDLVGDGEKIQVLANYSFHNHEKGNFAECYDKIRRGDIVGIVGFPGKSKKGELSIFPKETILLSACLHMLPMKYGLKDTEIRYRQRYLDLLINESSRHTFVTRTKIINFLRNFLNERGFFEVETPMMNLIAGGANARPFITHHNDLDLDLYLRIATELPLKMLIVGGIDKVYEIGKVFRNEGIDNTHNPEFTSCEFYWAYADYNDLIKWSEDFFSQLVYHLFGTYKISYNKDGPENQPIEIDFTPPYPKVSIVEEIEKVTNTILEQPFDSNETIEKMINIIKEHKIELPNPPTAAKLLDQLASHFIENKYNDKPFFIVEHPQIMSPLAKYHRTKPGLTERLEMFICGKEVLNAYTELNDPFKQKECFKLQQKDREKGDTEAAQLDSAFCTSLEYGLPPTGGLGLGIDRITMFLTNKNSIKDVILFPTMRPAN

The values are deposited in ChEMBL (CHEMBL3988442, “University of Dundee, Small-Polar-MMV Screening Library” (2021)).

Values are the deposited “Percent Effect”, in %. The record does not define 0% and 100%; most values in the screen are far below 50% and negative numbers occur (in some assays of this library far below -100). The compounds are a random part of those screened. A dash means the value is not listed here; it may have been measured.

TcHisRS: 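Histidine-tRNA ligase, Trypanosoma cruzi CL Brener (UniProt Q4DA54). Enzyme assay of histidyl-tRNA synthetase; the read-out is not stated. Tested at 30 µM. Direction is inferred from retests: higher values go with stronger inhibition. Size under these conditions: about 69,000 compounds, about 31 of them at 50% or above in at least one test.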
MtTrpRS: 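Tryptophan-tRNA ligase, Mycobacterium tuberculosis (UniProt P9WFT3). Enzyme assay of tryptophanyl-tRNA synthetase; the read-out is not stated. Tested at 10 µM. Higher most likely means stronger inhibition; the record gives no direction and few retests gave an IC50. Size under these conditions: about 65,000 compounds, about 64 of them at 50% or above in at least one test.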
Pks13 thioesterase: 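Enzyme assay of the thioesterase domain of polyketide synthase 13; the read-out is not stated. Target: Polyketide synthase Pks13, Mycobacterium tuberculosis (UniProt I6X8D2). Concentration: 30 µM. Higher reads as stronger inhibition (inferred from which compounds were picked for retests). About 67,000 compounds were tested under these conditions; 0.46% (about 300) showed 50% or more at least once.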
PfKRS1: 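Lysine-tRNA ligase, Plasmodium falciparum 3D7 (UniProt Q8IDJ8). Enzyme assay of the cytosolic lysyl-tRNA synthetase in 384-well plates, read by luminescence. Concentration: 30 µM. Higher reads as stronger inhibition, judged from the few compounds that gave an IC50. Of about 69,000 compounds tested this way, about 49 (0.071%) reached 50% or more in at least one test.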
Toxoplasma: 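Assay of Toxoplasma gondii numbers, read through their beta-galactosidase reporter with a colour substrate. Tested at 10 µM. Higher reads as fewer parasites (inferred from which compounds were picked for retests). Of about 67,000 compounds tested this way, about 260 (0.38%) reached 50% or more in at least one test.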

| # | compound | TcHisRS | MtTrpRS | Pks13 thioesterase | PfKRS1 | Toxoplasma |
|---|---|---|---|---|---|---|
| 1 | `COCCS(=O)(=O)N(Cc1cscn1)c1ccccc1` | 3.191% | -5.187% | -16.59% | 4.166% | -9.086% |
| 2 | `O=C(O)C(F)(F)F.O=C(O)C(F)(F)F.[H][C@@]12CN(Cc3ccccn3)C[C@]1([H])CN(S(=O)(=O)c1cn(C)cn1)C2` | - | - | - | - | 10.83% |
| 3 | `CC(C)(C)CC(=O)NCCn1nc(C2CCNC2)c2cccnc21.Cl` (centres undefined) | - | - | - | - | -2.673% |
| 4 | `Cn1cnc(S(=O)(=O)N2CC3(CCN(Cc4ccncc4)C3)C2)c1.O=C(O)C(F)(F)F.O=C(O)C(F)(F)F.O=C(O)C(F)(F)F` | - | - | - | - | -7.051% |
| 5 | `CCC1CN(CC(=O)NCCN2CCCCCC2)c2ccccc2S1` (centres undefined) | 5.941% | 1.089% | 6.501% | -2.068% | 28.44% |
| 6 | `O=C(CCc1ccsc1)NS(=O)(=O)Cc1ccon1` | 6.145% | -3.43% | -24.63% | 3.217% | -3.308% |
| 7 | `CCc1nc2n(n1)CC(NCc1cn(C)nc1-c1cccnc1)CC2` (centres undefined) | 2.174% | -3.633% | -14.99% | 2.406% | -3.291% |
| 8 | `O=C1NCCN2CCN(C(=O)NCCc3ccccc3)CC12` (centres undefined) | 8.152% | 2.031% | -24.78% | 6.324% | 0.05917% |
| 9 | `COc1nc2c(cc1C(=O)N(C)Cc1noc3c1CCCC3)CCC2` | -1.266% | 5.479% | -14.54% | 0.6414% | -2.264% |
| 10 | `CN(Cc1cccc(C(N)=O)c1)c1ncc(C#N)cc1Cl` | -5% | -3.039% | -10.25% | 2.519% | -3.068% |
| 11 | `COc1ccc(NC(=O)Nc2c(O)c3ccccc3oc2=O)cc1` | 6% | 1.527% | -36.32% | -3.28% | 7.773% |
| 12 | `N#Cc1ccc(NCc2cccc(COC3CCOCC3)c2)nc1` | 2.618% | -4.712% | -32.66% | 6.34% | -18.85% |
| 13 | `Cc1cnc(N2CCC3(CCC(C(=O)NC(C)C)C3)CC2)nc1` (centres undefined) | 15.95% | -0.0969% | -21.34% | 2.513% | - |
| 14 | `Cc1ccc(CC(=O)N2CCCCC2c2nc(C)cs2)cn1` (centres undefined) | 2.632% | -0.8772% | -2.977% | 1.549% | -1.294% |
| 15 | `Cc1ccc(C)c(NC(=O)c2coc(C)n2)c1` | 1.657% | -5.49% | -20.64% | 1.594% | -0.2679% |
| 16 | `CN1CCCN(C[C@@H]2CN(C(=O)CCc3cn[nH]c3)C[C@@H]2CO)CC1` | 1.571% | 0.7042% | -2.477% | 4.34% | 0.7493% |
| 17 | `[H][C@@]12CNC(=O)N1CCN(Cc1cccc(C)n1)C2` | - | - | - | - | 2.586% |
| 18 | `CC(C)c1nnc2n1CC(CNCc1ccc3c(c1)OCCO3)CC2` (centres undefined) | 0.8772% | -0.2867% | -38.09% | -6.982% | 3.453% |
| 19 | `CN(C)C1CC2(CCN(C(=O)NC3CC3)CC2)c2ccccc21.O=C(O)C(F)(F)F` (centres undefined) | - | - | - | - | 9.959% |
| 20 | `Cc1cc(-c2noc(C3CCS(=O)(=O)C3)n2)ccc1F` (centres undefined) | -2.02% | 0.5623% | -22.44% | 5.427% | 3.953% |
| 21 | `CC1(C(=O)Nc2ccc(F)c(-n3cccc3)c2)CCOCC1` | 10.92% | -8.111% | 3.969% | 7.779% | 3.361% |
| 22 | `CCn1c(CC2CCN(C(=O)C3CC(C(C)C)=NO3)CC2)nn(C)c1=O` (centres undefined) | -1.935% | -6.727% | -18.94% | 2.157% | -5.681% |
| 23 | `CCOc1ncccc1CNC(=O)c1cc(C)on1` | 3.779% | -7.91% | 6.154% | 0.09175% | -6.715% |
| 24 | `Cc1nc(CCN)cc(N2CCOc3ccc(Cl)cc3C2)n1` | 20.24% | -0.4938% | -5.804% | 0.8035% | -4.182% |
| 25 | `O=C(NC1CCN(c2cccc(OC(F)(F)F)c2)C1=O)C1CC1` (centres undefined) | 1.667% | 7.024% | -7.445% | 1.327% | 0.4651% |
| 26 | `CCc1nc(C(=O)N2CCCC2)nn1-c1ccccc1Cl` | 3.03% | 4.386% | -9.38% | 3.639% | -5.336% |
| 27 | `Cc1ccc(CN(C)C(=O)NCC(C)(C)NS(C)(=O)=O)s1` | 3.061% | -1.679% | -23.48% | -1.833% | 5.125% |
| 28 | `Cc1nc2c(c(NCCc3nc4c(s3)CCCC4)n1)CCNCC2` | -10.63% | -0.4341% | -19.54% | 2.344% | -0.699% |
| 29 | `CN(C)c1cc2c(nn1)CCN(C(=O)Cc1noc3ccccc13)C2` | 3.053% | 1.559% | -4.28% | 3.657% | 0.8271% |
| 30 | `CC(=O)N1CCCC1(C(=O)N1CCCC1)c1cnccn1` (centres undefined) | 2.26% | 29.96% | -4.91% | 0.6774% | 11.41% |
| 31 | `COCCN(Cc1ccc(F)cc1Cl)C(=O)c1cc(C)n[nH]1` | 2.956% | -4.145% | -57.3% | 7.831% | -5.183% |
| 32 | `Cc1cc(NC(=O)CNC2CCc3nc(C(C)C)nn3C2)no1` (centres undefined) | 4.094% | 4.427% | - | -1.041% | -38.39% |
| 33 | `O=C(NC[C@H]1OC[C@@H]2CCN(C3CCOCC3)C[C@@H]21)c1ccncc1` | 10.16% | -5.853% | -8.252% | 3.777% | - |
| 34 | `Cc1ccc(-c2cc(CNC(=O)N3CCSCC3)on2)cc1` | 7.018% | -8.442% | -5.444% | 1.239% | 10.24% |
| 35 | `CCOC(=O)c1ccc(NC(=O)c2c(O)nc3c(c2O)CCCC3)cc1` | 2.959% | -5.099% | -6.23% | -0.1867% | -9.638% |
| 36 | `CCc1cnc(CN2CCC(N(Cc3noc(CC)n3)C(C)=O)C2)o1` (centres undefined) | 2.286% | -10.66% | -11.14% | 0.7498% | 16.09% |
| 37 | `O=C(O)C(F)(F)F.[H][C@@]12CCN(c3cccnc3)C[C@]1([H])CN(C(=O)c1ccco1)C2` | - | - | - | - | -4.737% |
| 38 | `O=C(CCOc1ccccc1F)N1CCCCC1Cn1cccn1` (centres undefined) | 4.624% | -5.649% | -17.93% | 1.803% | 7.78% |
| 39 | `Cc1nc(Nc2ncccn2)cc(C2CCCN2C(C)C)n1` (centres undefined) | 5.243% | - | -7.325% | -0.03803% | 17.54% |
| 40 | `CC(=O)NCC(=O)N1C[C@H](OCc2cccnc2)[C@H]2COC[C@H]21` | 3.743% | 4.128% | -10.47% | 6.756% | - |
| 41 | `CN(C)c1ccc(-c2nnc([C@H]3CCN(C4CCCCC4)C3)o2)cc1` | 1.087% | -5.539% | 58.94% | 4.641% | 12.51% |
| 42 | `Cc1nccc(CNS(=O)(=O)N(C)Cc2ccc(Cl)cc2)n1` | 11.58% | 0.8596% | 7.313% | 1.172% | -8.706% |
| 43 | `CC(C)n1cnc2c1C(C(=O)N1CCCC1)N(S(C)(=O)=O)CC2` (centres undefined) | 7.595% | -4.423% | -4.391% | 14.25% | 4.261% |
| 44 | `CNC(=O)CCOC(=O)c1cccc(-n2cccn2)c1` | 6.667% | -4.43% | 1.782% | 3.541% | -44.47% |
| 45 | `CN1CCCc2cc(-c3cncn3CC(=O)NC(C)(C)C)ccc21.Cl` | - | - | - | - | -33.78% |
| 46 | `CNC(=O)c1sccc1S(=O)(=O)Nc1ccc(C)cc1` | 2.717% | -0.677% | -9.823% | 6.097% | 4.201% |
| 47 | `Cc1nn(C)c2c(=O)n(CC(=O)NCCC3=CCCCC3)ccc12` | 0.9901% | 2.333% | -1.163% | 2.666% | 11.73% |
| 48 | `Cc1ccc(OCCNC(=O)C2CCOCC2)c(C)c1` | -2.105% | 21.68% | 4.972% | -4.44% | -5.526% |
| 49 | `CC(=O)Nc1ccc(Oc2ccc(CN3CCCC3)cc2F)cc1` | 10.33% | -3.578% | -33.66% | 7.319% | 6.568% |
| 50 | `COc1ncnc2c1CCN(Cc1cccs1)CC2.O=C(O)C(F)(F)F` | - | - | - | - | 4.433% |
| 51 | `COc1cc(N2CCC3(CCCN(Cc4ccccn4)C3)C2)ncn1` (centres undefined) | 1.105% | - | -10.06% | 6.036% | - |
| 52 | `O=C(NC1CC1)N1CC[C@H](OCC2CC2)[C@@H]1Cc1cccnc1.O=C(O)C(F)(F)F` | - | - | - | - | -3.571% |
| 53 | `Cc1ccsc1CCNC(=O)CCC1CCCCN1C` (centres undefined) | 0% | 0.000008% | -32.13% | -1.577% | 1.622% |
| 54 | `Cc1ccc(CN2CCn3c(CNC(=O)c4cccn4C)cnc3C2)s1.O=C(O)C(F)(F)F` | - | - | - | - | -5.577% |
| 55 | `CCOC(C)c1noc(CN(C)C(=O)c2ccncc2)n1` (centres undefined) | 5.102% | 2.015% | -19.57% | -0.04641% | 0.9873% |
| 56 | `O=C(NC[C@H]1C[C@@H]2CN(C(=O)c3ccno3)C[C@@H]2O1)C1CCC1` | 6.135% | -0.0969% | -26.6% | 3.612% | - |
| 57 | `CCN1C[C@@H]2[C@@H](OC)CCN(S(=O)(=O)c3cccnc3)[C@@H]2C1` | 5.882% | -6.411% | -7.233% | 2.888% | - |
| 58 | `CN(Cc1nc(C2CC2)no1)C(=O)CN1CC(c2ccccc2)CC1=O` (centres undefined) | 4.255% | -0.455% | -35.7% | 5.033% | 3.45% |
| 59 | `COCC(=O)N[C@@H]1CN(Cc2c[nH]nc2-c2cccs2)C[C@H]1O` | 12.64% | -2.995% | 2.435% | -1.068% | 6.183% |
| 60 | `CCN1CCN(S(=O)(=O)N2CCCC2)[C@H]2CS(=O)(=O)C[C@H]21` | -5.263% | -0.8256% | -23.51% | 3.802% | - |
| 61 | `Cc1cc(CN2CCC(CNC(=O)c3ccc(O)c(Cl)c3)C2)[nH]n1` (centres undefined) | 4.237% | -0.6706% | -17.9% | 2.59% | -0.4785% |

6 of the entries, repeated:

compound	TcHisRS	MtTrpRS	Pks13 thioesterase	PfKRS1	Toxoplasma
Cc1ccc(OCCNC(=O)C2CCOCC2)c(C)c1	-2.105%	21.68%	4.972%	-4.44%	-5.526%
Cn1cnc(S(=O)(=O)N2CC3(CCN(Cc4ccncc4)C3)C2)c1.O=C(O)C(F)(F)F.O=C(O)C(F)(F)F.O=C(O)C(F)(F)F	-	-	-	-	-7.051%
Cc1ccsc1CCNC(=O)CCC1CCCCN1C (centres undefined)	0%	0.000008%	-32.13%	-1.577%	1.622%
CC(=O)NCC(=O)N1C[C@H](OCc2cccnc2)[C@H]2COC[C@H]21	3.743%	4.128%	-10.47%	6.756%	-
Cc1ccc(CN2CCn3c(CNC(=O)c4cccn4C)cnc3C2)s1.O=C(O)C(F)(F)F	-	-	-	-	-5.577%
O=C1NCCN2CCN(C(=O)NCCc3ccccc3)CC12 (centres undefined)	8.152%	2.031%	-24.78%	6.324%	0.05917%